Measured values taken from patent US20220204630A1 (SUNSHINE LAKE PHARMA, published 2022).
No constants are given. Whether binding was seen depends on the method and setting. Some binding calls cover weakened binding; strength is not graded here.

By UniProt entry, the sequences of proteins in these tests, tags left out. Where a name states a change or a piece, a line headed by the entry shows the natural chain unless it says otherwise. Residues count along the entry.
UniProt P04629: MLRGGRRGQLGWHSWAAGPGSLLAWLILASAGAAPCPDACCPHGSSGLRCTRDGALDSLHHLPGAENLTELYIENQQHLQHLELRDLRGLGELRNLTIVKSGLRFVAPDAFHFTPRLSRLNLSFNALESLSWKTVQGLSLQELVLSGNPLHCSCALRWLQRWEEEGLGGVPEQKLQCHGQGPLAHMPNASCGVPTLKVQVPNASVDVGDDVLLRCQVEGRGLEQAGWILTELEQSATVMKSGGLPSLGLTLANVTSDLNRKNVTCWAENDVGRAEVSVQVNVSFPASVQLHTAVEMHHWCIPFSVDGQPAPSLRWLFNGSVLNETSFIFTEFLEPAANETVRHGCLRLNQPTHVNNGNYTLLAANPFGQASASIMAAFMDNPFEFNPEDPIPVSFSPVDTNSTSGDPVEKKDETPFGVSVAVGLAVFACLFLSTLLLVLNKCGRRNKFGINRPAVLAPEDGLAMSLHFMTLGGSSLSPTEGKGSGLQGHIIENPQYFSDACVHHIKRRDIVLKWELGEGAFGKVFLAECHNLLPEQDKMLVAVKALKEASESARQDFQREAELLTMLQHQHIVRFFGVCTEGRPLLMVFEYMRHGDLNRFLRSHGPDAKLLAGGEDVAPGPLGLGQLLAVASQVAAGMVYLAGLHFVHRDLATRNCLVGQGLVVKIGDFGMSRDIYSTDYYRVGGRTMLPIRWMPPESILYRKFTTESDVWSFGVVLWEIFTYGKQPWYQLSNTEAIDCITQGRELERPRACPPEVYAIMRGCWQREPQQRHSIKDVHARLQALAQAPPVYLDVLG
TrkA protein on HEK-293T-TrkA cells or NIH-3T3-TrkA cells: residues 33-796 of P04629
TrKA receptor protein coated in ELISA (Examples 11 and 16): residues 33-423 of P04629
UniProt Q3UFB7: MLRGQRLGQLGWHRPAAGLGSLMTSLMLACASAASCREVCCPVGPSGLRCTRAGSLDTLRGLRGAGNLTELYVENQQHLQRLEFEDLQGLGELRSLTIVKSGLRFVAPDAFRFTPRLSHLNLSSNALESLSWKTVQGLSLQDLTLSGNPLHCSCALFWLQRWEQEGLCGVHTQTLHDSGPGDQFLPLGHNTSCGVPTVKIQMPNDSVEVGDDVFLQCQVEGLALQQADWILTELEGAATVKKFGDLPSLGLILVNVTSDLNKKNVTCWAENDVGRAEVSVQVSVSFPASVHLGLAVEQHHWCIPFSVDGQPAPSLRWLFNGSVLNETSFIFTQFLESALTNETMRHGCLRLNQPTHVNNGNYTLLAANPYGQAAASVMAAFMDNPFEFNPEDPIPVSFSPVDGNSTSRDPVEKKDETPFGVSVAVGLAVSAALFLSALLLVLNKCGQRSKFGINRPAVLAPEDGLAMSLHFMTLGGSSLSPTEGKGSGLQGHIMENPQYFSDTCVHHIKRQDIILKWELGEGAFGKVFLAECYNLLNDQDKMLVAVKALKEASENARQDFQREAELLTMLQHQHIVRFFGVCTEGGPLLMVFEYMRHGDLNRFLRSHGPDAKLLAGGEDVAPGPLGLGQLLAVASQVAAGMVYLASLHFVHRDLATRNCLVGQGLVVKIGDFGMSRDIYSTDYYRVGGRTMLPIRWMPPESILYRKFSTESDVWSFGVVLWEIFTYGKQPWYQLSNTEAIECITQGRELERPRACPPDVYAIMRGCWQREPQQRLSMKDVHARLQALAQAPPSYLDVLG
Mouse-TrKA receptor on the surface of HEK293T-Mouse-TrKA cells: residues 34-799 of Q3UFB7

Assays:
[1] = molecular target: TrkA protein on HEK-293T-TrkA cells or NIH-3T3-TrkA cells (human) (UniProt P04629); experiment: flow cytometry competition: hybridoma supernatant against biotinylated NGF binding to HEK-293T-TrkA cells; % parent is the NGF signal
[2] = molecular target: extracellular region of TrkA protein (human) (UniProt P04629); experiment: ELISA, hybridoma supernatant
Mouse-TrKA protein = molecular target: T1, Mouse-TrKA protein (mouse, UniProt Q3UFB7 34-420, limits assumed); experiment: ELISA, hybridoma supernatant
T1 construct: also called Mouse-TrKA receptor

[3] = molecular target: extracellular region of TrkA protein (human) (UniProt P04629); experiment: ELISA screening of hybridoma supernatants on TrkA extracellular region
[4] = molecular target: extracellular region of TrkA protein (human) (UniProt P04629); experiment: competition ELISA: hybridoma supernatant against biotinylated NGF binding to the TrkA extracellular region; OD450 is the NGF signal
[5] = molecular target: Mouse-TrKA protein (mouse) (UniProt Q3UFB7); experiment: ELISA
[6] = molecular target: TrKA receptor protein coated in ELISA (Examples 11 and 16) (human) (UniProt P04629); experiment: ELISA
[7] = molecular target: T2, TRKA protein with a histidine tag (human, UniProt P04629 33-423, limits assumed); experiment: BLI (Fortebio Octet RED96)
T2 construct: it is put last here only for order; also called TRKA (50 µg/ml, 75 kDa, provided by HEC Labs); not shown: histidine tag

[8] = molecular target: Mouse-TrKA receptor on the surface of HEK293T-Mouse-TrKA cells (mouse) (UniProt Q3UFB7); experiment: flow cytometry on HEK293T-Mouse-TrKA cells
[9] = molecular target: Mouse-TrKA protein (mouse) (UniProt Q3UFB7); experiment: competition ELISA: antibody against biotinylated Mouse-NGF binding to Mouse-TrkA; negative control IgG4 (m31)
[10] = molecular target: TrKA receptor protein coated in ELISA (Examples 11 and 16) (human) (UniProt P04629); experiment: ELISA, antibody titrated 0.019-20 µg/mL on TrKA

Measured: binding

B1: mouse monoclonal antibody produced by hybridoma clone 23E12 (antibody, V domains shown)
VH: QVQLQQSGAELVRPGTSVKISCKASGYAFTNYWLGWMKQRPGHGLEWIGDFYPRTGNTFYNENFKGKVTLTADKSSNTAYMQLSSLTSEDSAVYLCARAGTGFDYWGQGTTLTVSS
VL: SIVMTQSPKSMSMSVGERVTLSCKASENVGGYVSWYQQKPDQSPKLLIYGASSRHTGVPDRFTGSGSETDFTLTISSVQAEDLAAYHCGQNYIYPFTFGGGTKLEIK
notes: also called 23E12 (positive clone supernatant)
binds: [1] | [2] | Mouse-TrKA protein | [3] | [4]

B2: mouse monoclonal antibody produced by hybridoma clone 2008 (antibody, V domains shown)
VH: EVLLQQSGPELVKPGASMKISCKASVYSFTAYTMNWVKQSHGKNLEWIGLINPHNGGTRYNQKFKGKATLTLDKSSSTAYMDLLSLTSEDSAVYYCAISRYGSSSFYFDVWGAGTTVAVSS
VL: QIVLSQSPAILSASPGEKVTMTCRASSSISYMHWYQQKPGSSPKPWISATSNLASGVPARFSGSGSGTSYSLTISGVEAEDAATYYCQQWSSNPPTFGGGTNLEIK
binds: [1] | [3] | [4]

B3: mouse monoclonal antibody produced by hybridoma clone 21E5 (antibody, V domains shown)
VH: QVQLQQSGAELMKPGASMKISCKATGYTFSTYWIEWVKQRPGHGLEWIGENLPGRHITNYNEKFKGKATFTADTSSNTAYMQLSSLTSEDSAVYYCARGRGTYYFDYWGQGTPLTVSS
VL: DIVMTQAAFSTPVTLGTSASISCRSSQSLLHSNGITYLYWYLQKPGQSPQLLIYQMSNLASGVPDRFSSSGSGTDFTLRISRVEAEDVGVYYCAQNLEFPFTFGSGTKLEIK
notes: also called 21E5 (positive clone supernatant)
binds: [1] | [2] | Mouse-TrKA protein | [3] | [4]

B4: mouse monoclonal antibody produced by hybridoma clone 27H3 (antibody, V domains shown)
VH: QVQLQQSGAELMKPGASVKISCKTTGYRFSSYWIEWVKQRPGHGLEWLGEILPGRGIINYNENFRGKATFTADTSSNTAYVQLSSLTSEDSAVYFCARTDPPYFGVWGAGTTVTVSS
VL: QAVVTQESALTTSPGETVTLTCRSSTGAVTISNYANWVQEKPDHLFTGLIGGTNNRPPGVPARFSGSLIGDKAALTITGAQTEDEAIYFCVLWYSNHWVFGGGTKLTVL
notes: also called 27H3 (positive clone supernatant)
binds: [1] | [2] | Mouse-TrKA protein | [3] | [4]

B5: mouse monoclonal antibody produced by hybridoma clone 2A5 (antibody, V domains shown)
VH: EVQLQQSGPELVKPGASMKISCKASGYSFTGYTMNWVKQSHGKNLEWIGLINPYNGGTNYNQKFKGKATLTVDKSSSTAYMELLSLTSEDSAVYYCAFSYYGSRGFYFDYWGQGTTLTVSS
VL: QIVLTQSPALMSASPGEKVTMTCSATSSVSYIYWYQQKPRSSPKPWIYLTSNLASGVPARFSGSGSGTSYSLTISSMEAEDAATYYCQQWSSNPPTFGGGTKLEIK
notes: also called 2A5 (positive clone supernatant)
binds: [1] | [3] | [4]

B6: mouse monoclonal antibody produced by hybridoma clone 4H4 (antibody, V domains shown)
VH: EVQLQQSGPELVKPGASMKISCKASGYSFTGYTMNWVKQSHGKNLEWIGLINPYNGGTRYNQKFKGKATLTVDKSSSTAYMELLSLTSEDSAVYYCASSSYRNDGNWYFDVWGAGTTVTVSS
VL: DIVMTQSPAIMSASPGEKVTMTCSASSSVSYMHWYQQKSGTSPKRWIYDTSKLASGVPARFSGSGSGTSYSLTISSMETEDAATYYCQQWSSNPPTFGGGTKLELK
notes: also called 4H4 (positive clone supernatant)
binds: [1] | [3] | [4]

B7: mouse monoclonal antibody produced by hybridoma clone 1B9 (antibody, V domains shown)
VH: QVHLQQSGAELMKPGASVKISCKATGYTFNIYWIDWVKQRPGHGLEWIGEILPGSGNTHYNENFKGKATMTADTSSNTAYMQLTSLTSEDSAVYYCARTDGRGYFDYWGQGTTLTVSS
VL: DIVLTQSPASLVVSLGQRATISCRTSKSVSSSAYSYMHWYQQKPGQPPKVLIYLASNLESGVPARFSGSGSGTDFTLNIHPVEEEDAATYYCQHSRELPFTFGSGTKLEIK
notes: also called 1B9 (positive clone supernatant)
binds: [1] | [3] | [4]

B8: mouse monoclonal antibody produced by hybridoma clone 22D12 (antibody, V domains shown)
VH: EVQLQQSGPELVKPGASMKISCKASGYSITGYTMNWVKQSHGKNLEWIGLVNPYNGGTSYNQKFKGKATLTVDKSSSTAYMELLSLKSEDSAVYYCAISRYGSESWYFDVWGAGTTVTVSS
VL: QIVLSQSPAILSASPGEKVTMTCRATSSVSYMYWYQQKPGSSPKPWIYATSNLASGVPARFSGSGSGTSYSLTISRVEAEDAATYYCQQWSSNPPTFGGGTKLEKK
notes: also called 22D12 (positive clone supernatant)
binds: [1] | [3] | [4]

B9: mouse monoclonal antibody produced by hybridoma clone 15D4 (antibody, V domains shown)
VH: QVQLQQSGAELMKPGASVKISCKATGYTFSSYWIEWVKQRPGHGLEWLGEFLPRSGKTNYNEEFRGKATFTADTSSNTAYMQLSSLTSEDSAVYYCARTDPPYFGVWGAGTMVAVSS
VL: QIVLTQSPPIMSASPGEKVTMTCSASSNISYMHWYQQKSGTSPKRWIYDTSKLASGVPARFSGSGSGTSYSLTISSMEAEDAATYYCQQWSSVPLTFGAGTKLEIK
notes: also called 15D4 (positive clone supernatant)
binds: [1] | [2] | Mouse-TrKA protein | [3] | [4]

B10: 23E12 chimeric antibody (antibody, human IgG4 S228P, kappa, F234A L235A, V domains shown)
VH: QVQLQQSGAELVRPGTSVKISCKASGYAFTNYWLGWMKQRPGHGLEWIGDFYPRTGNTFYNENFKGKVTLTADKSSNTAYMQLSSLTSEDSAVYLCARAGTGFDYWGQGTTLTVSS
VL: SIVMTQSPKSMSMSVGERVTLSCKASENVGGYVSWYQQKPDQSPKLLIYGASSRHTGVPDRFTGSGSETDFTLTISSVQAEDLAAYHCGQNYIYPFTFGGGTKLEIKR
notes: expressed in CHO cells
binds: [5] | [6] | [7] | [8] | [9] | [10]

B11: 21E5 chimeric antibody (antibody, human IgG4 S228P, kappa, F234A L235A, V domains shown)
VH: QVQLQQSGAELMKPGASMKISCKATGYTFSTYWIEWVKQRPGHGLEWIGENLPGRHITNYNEKFKGKATFTADTSSNTAYMQLSSLTSEDSAVYYCARGRGTYYFDYWGQGTPLTVSS
VL: DIVMTQAAFSTPVTLGTSASISCRSSQSLLHSNGITYLYWYLQKPGQSPQLLIYQMSNLASGVPDRFSSSGSGTDFTLRISRVEAEDVGVYYCAQNLEFPFTFGSGTKLEIKR
notes: expressed in CHO cells
binds: [5] | [6] | [7] | [9] | [10]

B12: 2008 chimeric antibody (antibody, human IgG4 S228P, kappa, F234A L235A, V domains shown)
VH: EVLLQQSGPELVKPGASMKISCKASVYSFTAYTMNWVKQSHGKNLEWIGLINPHNGGTRYNQKFKGKATLTLDKSSSTAYMDLLSLTSEDSAVYYCAISRYGSSSFYFDVWGAGTTVAVSS
VL: QIVLSQSPAILSASPGEKVTMTCRASSSISYMHWYQQKPGSSPKPWISATSNLASGVPARFSGSGSGTSYSLTISGVEAEDAATYYCQQWSSNPPTFGGGTNLEIKR
notes: also called 20C8
binds: [6] | [7] | [10]

B13: 2A5 chimeric antibody (antibody, human IgG4 S228P, kappa, F234A L235A, V domains shown)
VH: EVQLQQSGPELVKPGASMKISCKASGYSFTGYTMNWVKQSHGKNLEWIGLINPYNGGTNYNQKFKGKATLTVDKSSSTAYMELLSLTSEDSAVYYCAFSYYGSRGFYFDYWGQGTTLTVSS
VL: QIVLTQSPALMSASPGEKVTMTCSATSSVSYIYWYQQKPRSSPKPWIYLTSNLASGVPARFSGSGSGTSYSLTISSMEAEDAATYYCQQWSSNPPTFGGGTKLEIKR
notes: expressed in CHO cells
binds: [6] | [7] | [10]

B14: 1B9 chimeric antibody (antibody, human IgG4 S228P, kappa, F234A L235A, V domains shown)
VH: QVHLQQSGAELMKPGASVKISCKATGYTFNIYWIDWVKQRPGHGLEWIGEILPGSGNTHYNENFKGKATMTADTSSNTAYMQLTSLTSEDSAVYYCARTDGRGYFDYWGQGTTLTVSS
VL: DIVLTQSPASLVVSLGQRATISCRTSKSVSSSAYSYMHWYQQKPGQPPKVLIYLASNLESGVPARFSGSGSGTDFTLNIHPVEEEDAATYYCQHSRELPFTFGSGTKLEIKR
notes: expressed in CHO cells
binds: [6] | [7] | [10]

B15: 4H4 chimeric antibody (antibody, human IgG4 S228P, kappa, F234A L235A, V domains shown)
VH: EVQLQQSGPELVKPGASMKISCKASGYSFTGYTMNWVKQSHGKNLEWIGLINPYNGGTRYNQKFKGKATLTVDKSSSTAYMELLSLTSEDSAVYYCASSSYRNDGNWYFDVWGAGTTVTVSS
VL: DIVMTQSPAIMSASPGEKVTMTCSASSSVSYMHWYQQKSGTSPKRWIYDTSKLASGVPARFSGSGSGTSYSLTISSMETEDAATYYCQQWSSNPPTFGGGTKLELKR
notes: expressed in CHO cells
binds: [6] | [7] | [10]

B16: 27H3 chimeric antibody (antibody, human IgG4 S228P, kappa, F234A L235A, V domains shown)
VH: QVQLQQSGAELMKPGASVKISCKTTGYRFSSYWIEWVKQRPGHGLEWLGEILPGRGIINYNENFRGKATFTADTSSNTAYVQLSSLTSEDSAVYFCARTDPPYFGVWGAGTTVTVSS
VL: QAVVTQESALTTSPGETVTLTCRSSTGAVTISNYANWVQEKPDHLFTGLIGGTNNRPPGVPARFSGSLIGDKAALTITGAQTEDEAIYFCVLWYSNHWVFGGGTKLTVLR
notes: expressed in CHO cells
binds: [6] | [7] | [10]
